The values that follow come from PMC11445549.

By UniProt entry, the sequences of proteins in these tests, tags left out.
UniProt P19474: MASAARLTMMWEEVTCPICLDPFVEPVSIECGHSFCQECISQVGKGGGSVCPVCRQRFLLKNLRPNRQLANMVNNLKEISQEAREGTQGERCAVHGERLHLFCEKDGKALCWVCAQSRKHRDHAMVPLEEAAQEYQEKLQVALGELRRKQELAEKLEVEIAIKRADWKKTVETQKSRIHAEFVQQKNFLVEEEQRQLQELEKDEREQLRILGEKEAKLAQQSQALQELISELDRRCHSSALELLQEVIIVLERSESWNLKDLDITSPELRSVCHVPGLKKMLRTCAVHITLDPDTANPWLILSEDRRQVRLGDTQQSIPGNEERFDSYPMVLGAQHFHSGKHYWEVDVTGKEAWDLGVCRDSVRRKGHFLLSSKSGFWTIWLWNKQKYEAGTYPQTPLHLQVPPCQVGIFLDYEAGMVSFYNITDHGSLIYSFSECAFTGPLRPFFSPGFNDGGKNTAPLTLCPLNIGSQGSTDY

The target of test [1] is GST-TRIM21 (UniProt P19474). The test is described as follows: pull-down; GST-tagged TRIM21 and a 6xHis-tagged protein purified from E. coli, incubated in vitro in pull-down buffer (137 mM NaCl, 0.1% Triton X-100); Western blotting; both purified. Background: A western blot detects proteins with antibodies after separation by electrophoresis.
Another test has as its target HA-TRIM21 (UniProt P19474). In words: co-IP; competitive binding: HepG2 cells expressing empty vector or EPDR1, infected with Flag-IKBKB and HA-EV or HA-TRIM21; immunoprecipitated with anti-HA, blotted for IKBKB, EPDR1 and HA.
The target of test [2] is GST-TRIM21 (UniProt P19474). The test is described as follows: pull-down; competitive: purified His-EPDR1 and His-IKBKB incubated with purified GST-TRIM21 alone or together in vitro; Western blotting; both purified.
A further test deals with Flag-TRIM21 (UniProt P19474). The test is described as follows: co-IP; HEK293T cells transfected with a Flag-tagged and an HA-tagged protein; lysates (1% NP-40 IP buffer) immunoprecipitated with anti-Flag, blotted for HA.

No constants are given. Whether binding was seen depends on the method and setting. For part of these data: In cells and extracts the contact can be indirect. Some results given as binding are weak or reduced against the parent protein; the word gives no strength. Tags and fused reporters may be left off the sequences shown.

B1: His-EPDR1 (protein, UniProt Q9UM22 38-224)
chain: APRPCQAPQQWEGRQVMYQQSSGRNSRALLSYDGLNQRVRVLDERKALIPCKRLFEYILLYKDGVMFQIDQATKQCSKMTLTQPWDPLDIPQNSTFEDQYSIGGPQEQITVQEWSDRKSARSYETWIGIYTVKDCYPVQETFTINYSVILSTRFFDIQLGIKDPSVFTPPSTCQMAQLEKMSEDCSW
As for B1, the binding entry with GST-TRIM21 [1] was “binds”.

B2: EPDR1 overexpressed in HepG2 cells (competitive co-IP, Fig. 3L) (protein, UniProt Q9UM22 38-224)
chain: B1 chain
With B2, in the test with HA-TRIM21, the binding entry is given as “binds”.

B3: His-IKBKB (protein, UniProt O14920 1-756)
chain: MSWSPSLTTQTCGAWEMKERLGTGGFGNVIRWHNQETGEQIAIKQCRQELSPRNRERWCLEIQIMRRLTHPNVVAARDVPEGMQNLAPNDLPLLAMEYCQGGDLRKYLNQFENCCGLREGAILTLLSDIASALRYLHENRIIHRDLKPENIVLQQGEQRLIHKIIDLGYAKELDQGSLCTSFVGTLQYLAPELLEQQKYTVTVDYWSFGTLAFECITGFRPFLPNWQPVQWHSKVRQKSEVDIVVSEDLNGTVKFSSSLPYPNNLNSVLAERLEKWLQLMLMWHPRQRGTDPTYGPNGCFKALDDILNLKLVHILNMVTGTIHTYPVTEDESLQSLKARIQQDTGIPEEDQELLQEAGLALIPDKPATQCISDGKLNEGHTLDMDLVFLFDNSKITYETQISPRPQPESVSCILQEPKRNLAFFQLRKVWGQVWHSIQTLKEDCNRLQQGQRAAMMNLLRNNSCLSKMKNSMASMSQQLKAKLDFFKTSIQIDLEKYSEQTEFGITSDKLLLAWREMEQAVELCGRENEVKLLVERMMALQTDIVDLQRSPMGRKQGGTLDDLEEQARELYRRLREKPRDQRTEGDSQEMVRLLLQAIQSFEKKVRVIYTQLSKTVVCKQKALELLPKVEEVVSLMNEDEKTVVRLQEKRQKELWNLLKIACSKVRGPVSGSPDSMNASRLSQPGQLMSQPSTASNSLPEPAKKSEELVAEAHNLCTLLENAIQDTVREQDQSFTALDWSWLQTEEEEHSCLEQAS
As to B3, the binding result with GST-TRIM21 [2] and in the test with GST-TRIM21 [1] was “binds” throughout.

B4: Flag-IKBKB (protein, UniProt O14920 1-756)
chain: B3 chain
For the molecule B4, the binding entry in the test with HA-TRIM21 is “binds”.

B5: HA-IKBKB (protein, UniProt O14920 1-756)
chain: B3 chain
In the case of B5, the binding result in the test with Flag-TRIM21 is “binds”.
